PubChem BioAssay AID248 (DTP/NCI, 2004)
The list is a part of this screen's results and no random one: it is rich in T/C values a quarter to a half above the control, in often repeated tests (any T/C) and in doses without a T/C. Further doses and runs are listed elsewhere. T/C gives the treated animals as a percentage of the vehicle group. Some doses have a count of surviving animals in place of a T/C: the source holds a T/C of zero for them, seemingly a mark for toxic or unscored doses. Some survivor counts are full or nearly so, which does not show that the dose was tolerated: survival well below the control is almost never listed, so the zero probably covers shortened survival too. Counts of survivors are from the toxicity check (mostly the fifth day) where no day follows; animals may have died later. Schedules are NCI's codes, read here as Q, the interval in days (D) or hours (H), X, the number of doses. Some schedules carry Z or #; the key to these is not given. For survival time, the PubChem record calls one and a half times the control and up active, and a quarter to a half above the control has no call in these data; cut-offs in other NCI protocols can differ. Some entries were tested several times; the values are given in rising order. Additions like (4×) stand for listed records that agree. Some T/C values carry the count of animals alive at the toxicity check (mostly the fifth day); without a count, all were alive then.

System: L1210 leukemia ip in BDF1 mice, survival T/C
Test: NCI In Vivo Anticancer Drug Screen. Data for tumor model L1210 Leukemia (intraperitoneal) in B6D2F1 (BDF1) mice
Conditions: T/C endpoint: mean survival time, higher T/C = longer survival
[1] = dose: 200.0 mg/kg/injection, schedule: Q01DX001 (ip), vehicle: saline
[2] = dose: 400.0 mg/kg/injection, schedule: Q01DX001 (ip), vehicle: saline
[3] = dose: 400.0 mg/kg/injection, schedule: Q01DX009 (ip), vehicle: Klucel (hydroxypropylcellulose) (HPC)
[4] = dose: 100.0 mg/kg/injection, schedule: Q01DX009 (ip), vehicle: Klucel (hydroxypropylcellulose) (HPC)
[5] = dose: 200.0 mg/kg/injection, schedule: Q01DX009 (ip), vehicle: Klucel (hydroxypropylcellulose) (HPC)
[6] = dose: 200.0 mg/kg/injection, schedule: Q04DX003 (ip), vehicle: Klucel (hydroxypropylcellulose) (HPC)
[7] = dose: 400.0 mg/kg/injection, schedule: Q04DX003 (ip), vehicle: Klucel (hydroxypropylcellulose) (HPC)
[8] = dose: 100.0 mg/kg/injection, schedule: Q01DX009 (ip), vehicle: saline
[9] = dose: 150.0 mg/kg/injection, schedule: Q04DX003 (ip), vehicle: saline
[10] = dose: 200.0 mg/kg/injection, schedule: Q01DX001 (ip), vehicle: carboxymethylcellulose (CMC)
[11] = dose: 400.0 mg/kg/injection, schedule: Q01DX001 (ip), vehicle: carboxymethylcellulose (CMC)

Question: For `O=C(O)c1cc(N=Nc2cccc([N+](=O)[O-])c2)ccc1O`, which survivor count (dose: 250.0 mg/kg/injection, schedule: Q01DX001 (ip), vehicle: Klucel (hydroxypropylcellulose) (HPC)) is on record?
Answer: 2 of 6

Question: `Oc1c(Br)cc(Br)cc1/C=N/N1CCN(/N=C/c2cc(Br)cc(Br)c2O)CC1` was tested. Which survivor count [1] did it give?
Answer: 4 of 4

Question: Which survivor count (dose: 10.0 mg/kg/injection, schedule: Q04DX002 (ip), vehicle: Klucel (hydroxypropylcellulose) (HPC)) does the source give for `N#CC(C#N)N=Nc1ccc(Cl)cc1Cl` here?
Answer: 2 of 3

Question: What about the survivor count (dose: 20.0 mg/kg/injection, schedule: Q04DX002 (ip), vehicle: Klucel (hydroxypropylcellulose) (HPC)) of the same molecule?
Answer: 0 of 3

Question: What about the survivor count (dose: 40.0 mg/kg/injection, schedule: Q04DX002 (ip), vehicle: Klucel (hydroxypropylcellulose) (HPC)) of the same molecule?
Answer: 0 of 3

Question: What does the source list for `CCC(=O)C(CCN(C)C)(c1ccccc1)c1ccccc1`?
Answer: survivor count [1]: 0 of 6; survivor count [2]: 0 of 6

Question: For `OC1COC(n2cnc3c(=S)nc[nH]c32)C(O)C1O` (centres undefined), which survivor count [2] is on record?
Answer: 1 of 4

Question: `OCCNc1nc2cc(Cl)ccc2c2ccc(Cl)cc12` was tested. Which survivor count [3] did it give?
Answer: 4 of 6

Question: What does the source list for `CC(=O)c1c(O)c(Br)c(C)oc1=O`?
Answer: survivor count [4]: 3 of 3; survivor count [5]: 2 of 3

Question: `CC(C)CC(CC(C)C)NCCOC(=O)Cc1ccccc1` was tested. Which survivor count (dose: 300.0 mg/kg/injection, schedule: Q01DX001 (ip), vehicle: other) did it give?
Answer: 1 of 6

Question: `CC(=O)Cc1cc(=O)[nH]c(=O)[nH]1` was tested. Which survivor count (dose: 50.0 mg/kg/injection, schedule: Q01DX009 (ip), vehicle: saline with Tween-80) did it give?
Answer: 3 of 3

Question: How did the survivor count (dose: 400.0 mg/kg/injection, schedule: Q04DX002 (ip), vehicle: Klucel (hydroxypropylcellulose) (HPC)) turn out when `COc1ccc(CCN)cc1F` was run?
Answer: 1 of 3

Question: Which survivor count (dose: 80.0 mg/kg/injection, schedule: Q01DX001 (ip), vehicle: saline) does the source give for `C1CCC2=NCCCN2CC1` here?
Answer: 2 of 6

Question: What about the survivor count (dose: 100.0 mg/kg/injection, schedule: Q01DX001 (ip), vehicle: saline) of the same molecule?
Answer: 3 of 6

Question: What about the survivor count [1] of the same molecule?
Answer: 1 of 6

Question: What about the survivor count [2] of the same molecule?
Answer: 0 of 6

Question: Which survivor count (dose: 25.0 mg/kg/injection, schedule: Q01DX009 (ip), vehicle: Klucel (hydroxypropylcellulose) (HPC)) does the source give for `CN1CCC(=C2c3ccccc3C(O)c3ccccc32)CC1` (centres undefined) here?
Answer: 6 of 6

Question: And the survivor count (dose: 100.0 mg/kg/injection, schedule: Q04DX003 (ip), vehicle: Klucel (hydroxypropylcellulose) (HPC))?
Answer: 1 of 4

Question: And the survivor count [6]?
Answer: 0 of 4

Question: And the survivor count [7]?
Answer: 0 of 4

Question: Which results are given for `COc1cc(NS(C)(=O)=O)ccc1Nc1c2ccccc2nc2cc(C(F)(F)F)c(N)cc12`?
Answer: T/C (dose: 50.0 mg/kg/injection, schedule: Q04DX002 (ip), vehicle: Klucel (hydroxypropylcellulose) (HPC)): 126 % of control; T/C [4]: 130 and 144 % of control; T/C (dose: 100.0 mg/kg/injection, schedule: Q04DX002 (ip), vehicle: Klucel (hydroxypropylcellulose) (HPC)): 133 % of control; T/C [6]: 138 % of control; survivor count [3]: 5 of 6

Question: For `Cc1ccc(NC(=O)COc2cc(Cl)c(Cl)cc2Cl)cc1[N+](=O)[O-]`, which survivor count (dose: 150.0 mg/kg/injection, schedule: Q01DX009 (ip), vehicle: Klucel (hydroxypropylcellulose) (HPC)) is on record?
Answer: 6 of 6

Question: And the survivor count (dose: 300.0 mg/kg/injection, schedule: Q01DX009 (ip), vehicle: Klucel (hydroxypropylcellulose) (HPC))?
Answer: 2 of 6

Question: Which results are given for `CCCCCCCC(C)NCCCO` (centres undefined)?
Answer: survivor count (dose: 150.0 mg/kg/injection, schedule: Q01DX001 (ip), vehicle: saline): 0 of 6; survivor count (dose: 300.0 mg/kg/injection, schedule: Q01DX001 (ip), vehicle: saline): 0 of 6

Question: `CSc1ncc2n1C=CN(C(=O)c1ccc([N+](=O)[O-])cc1)C2O` (centres undefined) was tested. Which survivor count [8] did it give?
Answer: 6 of 6

Question: Which T/C (dose: 15.0 mg/kg/injection, schedule: Q01DX Z (ip), vehicle: methylcellulose (MC)) does the source give for `NS(=O)(=O)c1ncnc2nc[nH]c12` here?
Answer: 125 % of control

Question: And the T/C (dose: 20.0 mg/kg/injection, schedule: Q01DX Z (ip), vehicle: methylcellulose (MC))?
Answer: 125 % of control

Question: What about the T/C (dose: 25.0 mg/kg/injection, schedule: Q01DX Z (ip), vehicle: methylcellulose (MC)) of the same molecule?
Answer: 128 % of control

Question: What about the T/C (dose: 33.0 mg/kg/injection, schedule: Q01DX Z (ip), vehicle: carboxymethylcellulose (CMC)) of the same molecule?
Answer: 134 % of control

Question: What about the T/C (dose: 37.5 mg/kg/injection, schedule: Q01DX009 (ip), vehicle: saline with Tween-80) of the same molecule?
Answer: 149 % of control

Question: And the T/C (dose: 45.0 mg/kg/injection, schedule: Q04DX003 (ip), vehicle: saline)?
Answer: 129 % of control

Question: What about the T/C (dose: 50.0 mg/kg/injection, schedule: Q01DX001 (ip), vehicle: carboxymethylcellulose (CMC)) of the same molecule?
Answer: 131 % of control

Question: What about the T/C (dose: 50.0 mg/kg/injection, schedule: Q01DX Z (ip), vehicle: methylcellulose (MC)) of the same molecule?
Answer: 131 % of control

Question: And the T/C (dose: 56.25 mg/kg/injection, schedule: Q01DX009 (ip), vehicle: saline)?
Answer: 148 % of control [4 of 6 alive]

Question: What about the T/C (dose: 66.0 mg/kg/injection, schedule: Q04DX003 (ip), vehicle: saline) of the same molecule?
Answer: 131 and 132 % of control

Question: What about the T/C (dose: 75.0 mg/kg/injection, schedule: Q01DX001 (ip), vehicle: carboxymethylcellulose (CMC)) of the same molecule?
Answer: 134 % of control

Question: What about the T/C (dose: 100.0 mg/kg/injection, schedule: Q01DX001 (ip), vehicle: carboxymethylcellulose (CMC)) of the same molecule?
Answer: 127 % of control

Question: What about the T/C (dose: 100.0 mg/kg/injection, schedule: Q01DX Z (ip), vehicle: methylcellulose (MC)) of the same molecule?
Answer: 131 % of control

Question: And the T/C (dose: 100.0 mg/kg/injection, schedule: Q04DX003 (ip), vehicle: saline)?
Answer: 125 (2×) and 134 % of control

Question: What about the T/C (dose: 114.0 mg/kg/injection, schedule: Q01DX Z (ip), vehicle: carboxymethylcellulose (CMC)) of the same molecule?
Answer: 132 % of control

Question: And the survivor count (dose: 150.0 mg/kg/injection, schedule: Q01DX009 (ip), vehicle: saline with Tween-80)?
Answer: 1 of 6

Question: What about the T/C [9] of the same molecule?
Answer: 131 [5 of 6 alive] and 135 % of control [5 of 6 alive]

Question: What about the survivor count (dose: 170.0 mg/kg/injection, schedule: Q01DX Z (ip), vehicle: carboxymethylcellulose (CMC)) of the same molecule?
Answer: 3 of 6

Question: What about the survivor count [10] of the same molecule?
Answer: 1 of 4

Question: What about the survivor count [1] of the same molecule?
Answer: 3 of 6

Question: What about the survivor count (dose: 225.0 mg/kg/injection, schedule: Q04DX003 (ip), vehicle: saline) of the same molecule?
Answer: 5 of 6

Question: What about the survivor count (dose: 255.0 mg/kg/injection, schedule: Q01DX Z (ip), vehicle: carboxymethylcellulose (CMC)) of the same molecule?
Answer: 0 of 6

Question: And the survivor count (dose: 340.0 mg/kg/injection, schedule: Q04DX003 (ip), vehicle: saline)?
Answer: 1 of 6

Question: And the survivor count [11]?
Answer: 0 of 4

Question: And the survivor count [2]?
Answer: 1 of 6

Question: How did the survivor count (dose: 75.0 mg/kg/injection, schedule: Q01DX001 (ip), vehicle: acetone) turn out when `Cc1ccc(N=N/C(=N\Nc2ccc(C)cc2)[N+](=O)[O-])cc1` was run?
Answer: 6 of 6

Question: For `O=C(Nc1ccc([N+](=O)[O-])cc1)Nc1ccc([N+](=O)[O-])cc1` (tested in a mixture with another compound), which survivor count [8] is on record?
Answer: 6 of 6

Question: Which survivor count [10] does the source give for `O=C(/C=C/c1ccccc1)CCN1CCC2CCC(C2)C1` (centres undefined) here?
Answer: 0 of 4

Question: And the survivor count [11]?
Answer: 0 of 4

Question: With `Cc1ccc(C2=CCCCC2)cc1` as the molecule, how does the survivor count [10] read?
Answer: 2 of 4

Question: `CC(c1ccccc1)C1N(c2ccccc2)CCN1c1ccccc1` (centres undefined) was tested. Which survivor count [4] did it give?
Answer: 6 of 6

Question: What about the survivor count [5] of the same molecule?
Answer: 6 of 6

Question: And the survivor count [3]?
Answer: 6 of 6

Question: `O=[N+]([O-])c1cc([N+](=O)[O-])c2ccc(S(=O)(=O)O)cc2c1O` was tested. Which survivor count [6] did it give?
Answer: 0 of 6

Question: And the survivor count [7]?
Answer: 0 of 6

Question: Which survivor count (dose: 400.0 mg/kg/injection, schedule: Q04DX003 (ip), vehicle: saline with Tween-80) does the source give for `O=C1OC2(c3ccccc31)c1ccccc1-c1ccccc12` here?
Answer: 6 of 6

Question: With `C=C(Cl)CSC(=N)N` as the molecule, how does the survivor count (dose: 40.0 mg/kg/injection, schedule: Q01DX009 (ip), vehicle: saline) read?
Answer: 4 of 6

Question: And the survivor count (dose: 50.0 mg/kg/injection, schedule: Q01DX009 (ip), vehicle: Klucel (hydroxypropylcellulose) (HPC))?
Answer: 6 of 6

Question: And the survivor count [8]?
Answer: 0 of 6

Question: And the survivor count (dose: 200.0 mg/kg/injection, schedule: Q01DX009 (ip), vehicle: saline)?
Answer: 0 of 6

Question: What about the survivor count (dose: 400.0 mg/kg/injection, schedule: Q01DX009 (ip), vehicle: saline) of the same molecule?
Answer: 0 of 6

Question: Which survivor count [9] does the source give for `CN1CCN(c2nc3ccccc3n3nnnc23)CC1` here?
Answer: 3 of 4
